{"source": "PubChem BioAssay AID504744 (Drosophila RNAi Screening Center, 2011)", "screen": "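Identify dsRNAs that increase or decrease phospho-dAkt after insulin treatment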 (primary screen)", "cells": "Drosophila Kc167 cells", "reagents": "long dsRNA against Drosophila genes, 250 ng dsRNA per well of a 384-well plate", "time to read-out": "3 days of knock-down, then overnight serum-free starvation before stimulation", "treatment": "bovine insulin at 387 nM for 10 minutes after 12 h without serum", "measurement": "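In-cell antibody fluorescence for phospho-dAkt in each well over DNA-dye signal, with log2 residuals expressed as z-scores adjusted for cell count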", "call rule": "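Under insulin, a gene counts as a hit if the average z-score of two replicates lies above 2.5 or below -2.5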", "note": "The deposit covers about 23,000 reagents; below is an unselected part of those with a known target gene and a result. Over the whole deposit, 98 (0.43%) got an active call. 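Only hit calls are given; the phospho-dAkt signals, z-scores and hit direction were not deposited.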 Reagent sequences are not shown."}
{"gene": "RSG7", "PubChem SID": "SID104200066", "Outcome": "inactive"}
{"gene": "RSG7", "PubChem SID": "SID104202211", "Outcome": "inactive"}
{"gene": "CG17601", "PubChem SID": "SID104200431", "Outcome": "inactive"}
{"gene": "CG17929", "PubChem SID": "SID104195083", "Outcome": "inactive"}
{"gene": "Sap130", "PubChem SID": "SID104189472", "Outcome": "inactive"}
{"gene": "CG14966", "PubChem SID": "SID104188217", "Outcome": "inactive"}
{"gene": "tra", "PubChem SID": "SID104191197", "Outcome": "inactive"}
{"gene": "Ald1", "PubChem SID": "SID104193901", "Outcome": "inactive"}
{"gene": "CG14877", "PubChem SID": "SID104194793", "Outcome": "inactive"}
{"gene": "TyrRII", "PubChem SID": "SID104194942", "Outcome": "inactive"}
{"gene": "CG13362", "PubChem SID": "SID104197689", "Outcome": "inactive"}
{"gene": "dgt2", "PubChem SID": "SID104182340", "Outcome": "inactive"}

Reformatted: entries from further up
gene,PubChem SID,Outcome
RSG7,SID104200066,inactive
RSG7,SID104202211,inactive
CG17601,SID104200431,inactive
CG17929,SID104195083,inactive

More results follow:
{"gene": "CG8326", "PubChem SID": "SID104199895", "Outcome": "inactive"}
{"gene": "CG40245 (retired record)", "PubChem SID": "SID104200804", "Outcome": "inactive"}
{"gene": "CG31224", "PubChem SID": "SID104195064", "Outcome": "inactive"}
{"gene": "CG31224", "PubChem SID": "SID104196082", "Outcome": "inactive"}
{"gene": "unc-45", "PubChem SID": "SID104195241", "Outcome": "inactive"}
{"gene": "Prosalpha3T", "PubChem SID": "SID104195018", "Outcome": "inactive"}
{"gene": "CG14743", "PubChem SID": "SID104186271", "Outcome": "inactive"}
{"gene": "CG32588", "PubChem SID": "SID104201801", "Outcome": "inactive"}
{"gene": "alpha-Man-Ib", "PubChem SID": "SID104194210", "Outcome": "inactive"}
{"gene": "E5", "PubChem SID": "SID104192792", "Outcome": "inactive"}
{"gene": "E5", "PubChem SID": "SID104196377", "Outcome": "inactive"}
